Laboratory results published in patent publication US20170269076A1.
Results are given in words; binding and its absence hold for the method and conditions named. In cells and extracts the contact can be indirect. Some binding calls cover weakened binding; strength is not graded here.

Protein sequences, listed by entry. Tags and fused reporters are not part of them. Lines headed by an entry give the natural chain unless they say otherwise; changes in a name come on top.
UniProt P10923: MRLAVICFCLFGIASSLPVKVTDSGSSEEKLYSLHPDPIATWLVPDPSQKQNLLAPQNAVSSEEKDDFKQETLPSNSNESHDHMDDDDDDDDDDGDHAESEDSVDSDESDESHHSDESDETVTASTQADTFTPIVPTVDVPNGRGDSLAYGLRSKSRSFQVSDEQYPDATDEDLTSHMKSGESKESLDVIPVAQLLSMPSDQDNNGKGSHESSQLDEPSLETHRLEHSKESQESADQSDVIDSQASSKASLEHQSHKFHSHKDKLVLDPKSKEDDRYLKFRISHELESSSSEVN

Assays:
[1] = molecular target: Bcl6 (endogenous, mouse CD4+ T cells) (mouse) (UniProt P41183); test: endogenous co-IP and co-IP from transfected 293T cells (FIG. 8)
[2] = molecular target: p85α (endogenous, mouse CD4+ T cells) (mouse) (UniProt P26450); test: co-IP, transfected 293T cells and primary mouse CD4+ T cells (FIG. 6)
[3] = molecular target: p85α (endogenous, mouse CD4+ T cells) (mouse) (UniProt P26450); test: co-immunoprecipitation from primary mouse CD62L- CD4+ T cells after anti-CD3/anti-ICOS stimulation (FIG. 6B)
[4] = molecular target: Bcl6 (endogenous, mouse CD4+ T cells) (mouse) (UniProt P41183); test: endogenous co-IP from CD62L- CD4+ T cells of OPN-i KI mice 3 d after immunization (FIG. 8A)

binding [1]: binds
binding [2]: binds
binding [3]: binds
binding [4]: binds
Substance: intracellular osteopontin (OPN-i) (from UniProt P10923 17-294)
